Drawing on paper doi:10.1101/2025.02.28.640839, this text covers binding for one molecule.

Results are given in words; binding and its absence hold for the method and conditions named. Binding calls can cover weak binding; strength is not graded here.

For this assay, the target named is Protein Disulfide Isomerase (human (endogenous in A549, HT29, U251)). Kind of assay: drug resin affinity chromatography.

B1: ALDH1A1 (protein, UniProt P00352 1-501)
chain: MSSSGTPDLPVLLTDLKIQYTKIFINNEWHDSVSGKKFPVFNPATEEELCQVEEGDKEDVDKAVKAARQAFQIGSPWRTMDASERGRLLYKLADLIERDRLLLATMESMNGGKLYSNAYLNDLAGCIKTLRYCAGWADKIQGRTIPIDGNFFTYTRHEPIGVCGQIIPWNFPLVMLIWKIGPALSCGNTVVVKPAEQTPLTALHVASLIKEAGFPPGVVNIVPGYGPTAGAAISSHMDIDKVAFTGSTEVGKLIKEAAGKSNLKRVTLELGGKSPCIVLADADLDNAVEFAHHGVFYHQGQCCIAASRIFVEESIYDEFVRRSVERAKKYILGNPLTPGVTQGPQIDKEQYDKILDLIESGKKEGAKLECGGGPWGNKGYFVQPTVFSNVTDEMRIAKEEIFGPVQQIMKFKSLDDVIKRANNTFYGLSAGVFTKDIDKAITISSALQAGTVWVNCYGVVSAQCPFGGFKMSGNGRELGEYGFHEYTEVKTVTVKISQKNS
Turning to B1, the binding result was “binds”.
